In one series the test system is HLA-A*24 molecules of primary tumors. The series can be described thus: Identification and relative LC-MS quantitation of HLA-A*24 tumor-associated peptides presented on tissue samples (XPRESIDENT presentation profiles). The following applies: FIG. 1 presentation profile; shown are only samples where the peptide was found to be presented. Set-up: species or system human.
Turning to “LYSPVPFTL (listed as Homo sapiens) [SEQ ID NO: 175]”, the “number of cancer tissues on which the peptide was found presented” value (“number of cancer tissues” for short) is given as 42.
On to “KYTSYILAF (listed as Homo sapiens) [SEQ ID NO: 162]”, for which the “number of cancer tissues” value is given as 95, the “number of cell lines on which the peptide was found presented” value came out at 3 and the “number of normal tissues on which the peptide was found presented” value was found to be 4.
For “IYVIPQPHF (listed as Homo sapiens) [SEQ ID NO: 346]”, the “number of cancer tissues” value was 21.
Take “VYALKVRTI (listed as Homo sapiens) [SEQ ID NO: 145]”: the “number of cancer tissues” value came to 25.

The series is the same for the next values; noted with them: Table 9A: selected HLA-A*24-binding tumor-associated peptides; cancer entities on which the peptide was found presented.
Consider “248 (AFPTFSVQL; listed as Homo sapiens) [compound 248]”, for which the ENTITIES entry is listed as “NSCLC”.
For the substance “313 (KYTHFIQSF; listed as Homo sapiens) [compound 313]”, the ENTITIES result was “NSCLC, GC, RCC, GB, PCA, HCC”.
Take “406 (TYSEKTTLF; listed as Homo sapiens) [compound 406]”: the ENTITIES result is recorded as “NSCLC, GC”.
“373 (GYISNGELF; listed as Homo sapiens) [compound 373]”: the ENTITIES result is given as “PCA, HCC”.
With “122 (EYQARIPEF; listed as Homo sapiens) [compound 122]”, the ENTITIES entry was “NSCLC, GC, GB, PCA, HCC”.
As to “311 (EYLQNLNHI; listed as Homo sapiens) [compound 311]”, the ENTITIES result was “PCA”.
As for “380 (VYTGIDHHW; listed as Homo sapiens) [compound 380]”, the ENTITIES entry was “NSCLC, GC, RCC, GB, PCA, HCC”.
On the same count and under the same terms, in the case of “111 (VYVQILQKL; listed as Homo sapiens) [compound 111]” it was “GC, HCC, NSCLC”; in that of “197 (IFTDIFHYL; listed as Homo sapiens) [compound 197]”, “HCC, NSCLC, GC, GB”.
Turning to “359 (NYGVLHVTF; listed as Homo sapiens) [compound 359]”, the ENTITIES result was “RCC, HCC, NSCLC”.
On the same count and under the same terms, in the case of “351 (IFHEVPLKF; listed as Homo sapiens) [compound 351]” it was “HCC, NSCLC”; in that of “133 (KYLEDMKTYF; listed as Homo sapiens) [compound 133]”, “HCC, NSCLC, GC, GB”.
As to “309 (KYYRQTLLF; listed as Homo sapiens) [compound 309]”, the ENTITIES result is listed as “PCA, HCC, NSCLC, GC, GB”.
Take “275 (KYGTLDVTF; listed as Homo sapiens) [compound 275]”: the ENTITIES result is on record as “NSCLC”.
As to “346 (IYVIPQPHF; listed as Homo sapiens) [compound 346]”, the ENTITIES entry was “NSCLC, GC, GB, HCC”.
Same read-out and setting: in the case of “96 (YYTQYSQTI; listed as Homo sapiens) [compound 96]” it was “HCC, NSCLC, GC, GB”; in that of “290 (KYGDFKLLEF; listed as Homo sapiens) [compound 290]”, “PCA, GB”.
On the same count and under the same terms, in the case of “179 (TYIPVGLGRLL; listed as Homo sapiens) [compound 179]” it was “NSCLC, GC”; in that of “120 (GYIEHFSLW; listed as Homo sapiens) [compound 120]”, “HCC, NSCLC, GC”.
Regarding “358 (YYSEVPVKL; listed as Homo sapiens) [compound 358]”, the ENTITIES entry is on record as “NSCLC, GB”.
On to “137 (EYLHNCSYF; listed as Homo sapiens) [compound 137]”, for which the ENTITIES entry is on record as “GC, PCA, HCC, NSCLC”.
In the case of “365 (VFIDHPVHL; listed as Homo sapiens) [compound 365]”, the ENTITIES result is given as “NSCLC, GB”.
On to “385 (QYIEELQKF; listed as Homo sapiens) [compound 385]”, for which the ENTITIES entry is listed as “NSCLC, HCC”.
As to “353 (TYGKIDLGF; listed as Homo sapiens) [compound 353]”, the ENTITIES result is reported as “HCC, NSCLC, GC, GB”.
Consider “417 (VYKVVGNLL; listed as Homo sapiens) [compound 417]”, for which the ENTITIES entry was “GB, RCC, HCC, NSCLC, GC”.
Consider “126 (PYDPALGSPSRLF; listed as Homo sapiens) [compound 126]”, for which the ENTITIES entry was “NSCLC, GC, PCA, HCC”.
As to “104 (SYLTWHQQI; listed as Homo sapiens) [compound 104]”, the ENTITIES entry is “PCA, HCC, NSCLC”.
In the case of “118 (KYLNSVQYI; listed as Homo sapiens) [compound 118]”, the ENTITIES entry is “HCC, NSCLC, GC, GB, PCA”.
For the substance “271 (RFLMKSYSF; listed as Homo sapiens) [compound 271]”, the ENTITIES entry was “HCC”.
Still for that read-out and setting: in the case of “371 (AYSHLRYVF; listed as Homo sapiens) [compound 371]” it was “GB, PCA, HCC, NSCLC”.
For “316 (VYFEGSDFKF; listed as Homo sapiens) [compound 316]”, the ENTITIES result was “GB, PCA, HCC, NSCLC”.
Take “280 (TYNPNLQDKL; listed as Homo sapiens) [compound 280]”: the ENTITIES result was “HCC”.
“393 (KYIEAIQWI; listed as Homo sapiens) [compound 393]”: the ENTITIES result is “HCC, NSCLC”.
As for “366 (QYLELAHSL; listed as Homo sapiens) [compound 366]”, the ENTITIES entry was “HCC, NSCLC, GC”.
“235 (VYKDSIYYI; listed as Homo sapiens) [compound 235]”: the ENTITIES entry is “GB, PCA, HCC, NSCLC, GC”.
Consider “221 (KYIGNLDLL; listed as Homo sapiens) [compound 221]”, for which the ENTITIES entry is reported as “NSCLC, GB”.
On the same count and under the same terms, the entry for “286 (SYGTILSHI; listed as Homo sapiens) [compound 286]” is “NSCLC”; for “386 (TFSDVEAHF; listed as Homo sapiens) [compound 386]” it is “HCC, NSCLC, GC, GB”.
Take “186 (VFTTSSNIF; listed as Homo sapiens) [compound 186]”: the ENTITIES result is listed as “NSCLC, GB”.
“183 (PYLQDVPRI; listed as Homo sapiens) [compound 183]”: the ENTITIES entry was “NSCLC, GB”.
In the case of “370 (RFIGIPNQF; listed as Homo sapiens) [compound 370]”, the ENTITIES entry is “PCA”.
For “98 (VFPRLHNVLF; listed as Homo sapiens) [compound 98]”, the ENTITIES entry is “HCC, NSCLC, GC”.
As for “196 (GYIRGSWQF; listed as Homo sapiens) [compound 196]”, the ENTITIES result is recorded as “NSCLC, GC”.
“150 (IYITRQFVQF; listed as Homo sapiens) [compound 150]”: the ENTITIES result is “PCA, HCC, NSCLC, GB”.
Consider “240 (YYFFVQEKI; listed as Homo sapiens) [compound 240]”, for which the ENTITIES result was “HCC, NSCLC”.
On to “207 (LYSDAFKFIVF; listed as Homo sapiens) [compound 207]”, for which the ENTITIES result is on record as “NSCLC”.
In the case of “368 (KYQNVKHNL; listed as Homo sapiens) [compound 368]”, the ENTITIES entry is “NSCLC, HCC”.
Regarding “217 (IYISNSIYF; listed as Homo sapiens) [compound 217]”, the ENTITIES entry is reported as “NSCLC, GC”.
With “301 (KFDDVTMLF; listed as Homo sapiens) [compound 301]”, the ENTITIES entry was “NSCLC, GC, HCC”.
Turning to “154 (VYGVPTPHF; listed as Homo sapiens) [compound 154]”, the ENTITIES entry was “GB, NSCLC”.
On to “310 (IYAPTLLVF; listed as Homo sapiens) [compound 310]”, for which the ENTITIES entry is “GC, GB, RCC, HCC, NSCLC”.
As for “135 (VYEAMVPLF; listed as Homo sapiens) [compound 135]”, the ENTITIES entry is on record as “GC, NSCLC”.
For the substance “412 (SYNPLWLRI; listed as Homo sapiens) [compound 412]”, the ENTITIES entry was “GB, RCC, HCC, NSCLC, GC”.
On the same count and under the same terms, the entry for “298 (AYKSEVVYF; listed as Homo sapiens) [compound 298]” is “NSCLC, GB”; for “319 (KYSDVKNLI; listed as Homo sapiens) [compound 319]” it is “PCA, HCC, NSCLC, GB”.
With “166 (FYTLPFHLI; listed as Homo sapiens) [compound 166]”, the ENTITIES result is on record as “HCC, NSCLC”.

Staying with this series, now noted: Table 9B: selected HLA-A*24 peptides; presentation on additional cancer entities.
“171 (NYEDHFPLL; listed as Homo sapiens) [compound 171]”: the “Peptide Presentation on cancer entities” value is listed as “NSCLC”.
Regarding “205 (VYPVVLNQI; listed as Homo sapiens) [compound 205]”, the “Peptide Presentation on cancer entities” value is given as “NSCLC”.
Turning to “227 (IYRFITERF; listed as Homo sapiens) [compound 227]”, the “Peptide Presentation on cancer entities” value is listed as “NSCLC”.
The same measure, in the same setting: in the case of “241 (SYVKVLHHL; listed as Homo sapiens) [compound 241]” it was “HCC”.
On to “293 (VYPHFSTTNLI; listed as Homo sapiens) [compound 293]”, for which the “Peptide Presentation on cancer entities” value is recorded as “HCC”.
“200 (VFIHHLPQF; listed as Homo sapiens) [compound 200]”: the “Peptide Presentation on cancer entities” value is reported as “HCC”.
Take “291 (YYLGSGRETF; listed as Homo sapiens) [compound 291]”: the “Peptide Presentation on cancer entities” value is on record as “NSCLC, GB, PCA, HCC”.
On the same count and under the same terms, the entry for “364 (KYLNENQLSQL; listed as Homo sapiens) [compound 364]” is “NSCLC”.
Regarding “283 (EYQEIFQQL; listed as Homo sapiens) [compound 283]”, the “Peptide Presentation on cancer entities” value is given as “NSCLC”.
Consider “140 (RYLINSYDF; listed as Homo sapiens) [compound 140]”, for which the “Peptide Presentation on cancer entities” value is “NSCLC”.
On to “211 (VFKSEGAYF; listed as Homo sapiens) [compound 211]”, for which the “Peptide Presentation on cancer entities” value is given as “NSCLC”.
Consider “152 (KFFDDLGDELLF; listed as Homo sapiens) [compound 152]”, for which the “Peptide Presentation on cancer entities” value is “NSCLC”.
In the case of “135 (VYEAMVPLF; listed as Homo sapiens) [compound 135]”, the “Peptide Presentation on cancer entities” value was “HCC”.
For “273 (IYGEKLQFIF; listed as Homo sapiens) [compound 273]”, the “Peptide Presentation on cancer entities” value is listed as “NSCLC”.
As for “224 (PYFFANQEF; listed as Homo sapiens) [compound 224]”, the “Peptide Presentation on cancer entities” value is listed as “HCC”.

Values taken from patent US10159726B2, “Peptides, combination of peptides and scaffolds for use in immunotherapeutic treatment of various cancers” (Immatics Biotechnologies GmbH, priority 2015, dated 2018).
